Results are given in words; binding and its absence hold for the method and conditions named. In cells and extracts the contact can be indirect. Some binding calls cover weakened binding; strength is not graded here. Tags and fused reporters may be left off the sequences shown.

In the experiment the target is T1, C-terminally FLAG-tagged Tim18 (S. cerevisiae) (UniProt Q08749).
T1 sequence: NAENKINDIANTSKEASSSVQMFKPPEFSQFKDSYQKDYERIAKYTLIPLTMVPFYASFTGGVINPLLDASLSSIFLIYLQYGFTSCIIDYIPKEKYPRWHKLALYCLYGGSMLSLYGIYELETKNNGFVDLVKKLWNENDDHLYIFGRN
Nature of the experiment: co-IP.

B1: Sdh3 (protein, UniProt P33421 51-198)
chain: NVASEMNTKAAIAEEQILNKQRAKRPISPHLTIYQPQLTWYLSSLHRISLVLMGLGFYLFTILFGVSGLLGLGLTTEKVSNWYHQKFSKITEWSIKGSFAYLFAIHYGGAIRHLIWDTAKELTLKGVYRTGYALIGFTAVLGTYLLTL
As to B1, the binding result is on record as “binds”.

B2: Yme1 (enzyme, UniProt P32795 1-747)
chain: MNVSKILVSPTVTTNVLRIFAPRLPQIGASLLVQKKWALRSKKFYRFYSEKNSGEMPPKKEADSSGKASNKSTISSIDNSQPPPPSNTNDKTKQANVAVSHAMLATREQEANKDLTSPDAQAAFYKLLLQSNYPQYVVSRFETPGIASSPECMELYMEALQRIGRHSEADAVRQNLLTASSAGAVNPSLASSSSNQSGYHGNFPSMYSPLYGSRKEPLHVVVSESTFTVVSRWVKWLLVFGILTYSFSEGFKYITENTTLLKSSEVADKSVDVAKTNVKFDDVCGCDEARAELEEIVDFLKDPTKYESLGGKLPKGVLLTGPPGTGKTLLARATAGEAGVDFFFMSGSEFDEVYVGVGAKRIRDLFAQARSRAPAIIFIDELDAIGGKRNPKDQAYAKQTLNQLLVELDGFSQTSGIIIIGATNFPEALDKALTRPGRFDKVVNVDLPDVRGRADILKHHMKKITLADNVDPTIIARGTPGLSGAELANLVNQAAVYACQKNAVSVDMSHFEWAKDKILMGAERKTMVLTDAARKATAFHEAGHAIMAKYTNGATPLYKATILPRGRALGITFQLPEMDKVDITKRECQARLDVCMGGKIAEELIYGKDNTTSGCGSDLQSATGTARAMVTQYGMSDDVGPVNLSENWESWSNKIRDIADNEVIELLKDSEERARRLLTKKNVELHRLAQGLIEYETLDAHEIEQVCKGEKLDKLKTSTNTVVEGPDSDERKDIGDDKPKIPTMLNA
For B2, the binding entry is given as “binds”.

The record behind these values is publication doi:10.1101/2022.02.03.478940.
